Patent publication US7060293B1, “Powder-layered oral dosage forms” (Purdue Pharma, priority 1994, dated 2006)
Counter-ions that a name gives are not always drawn.

Assay: Bulk density (poured and tapped) of drug powders and processing aid
Type: physicochemical
Settings: powder used in the examples

**Q.** With `CN1CC[C@]23c4c5ccc(O)c4O[C@H]2[C@@H](O)C=C[C@H]3[C@H]1C5` [morphine sulfate, 7,8 didehydro-,5 α-epoxy-17-methylmorphinan-3,6 α-diol sulfate (2:1) salt pentahydrate] as the molecule, how does the bulk density read?
**A.** about 0.44 g/ml
